Patent US20230235075A1
Results are given in words; binding and its absence hold for the method and conditions named. Some binding calls cover weakened binding; strength is not graded here.

By UniProt entry, the sequences of proteins in these tests, tags left out. Where a name states a change or a piece, a line headed by the entry shows the natural chain unless it says otherwise. Residues count along the entry.
UniProt Q9NPY3, residues 22-580: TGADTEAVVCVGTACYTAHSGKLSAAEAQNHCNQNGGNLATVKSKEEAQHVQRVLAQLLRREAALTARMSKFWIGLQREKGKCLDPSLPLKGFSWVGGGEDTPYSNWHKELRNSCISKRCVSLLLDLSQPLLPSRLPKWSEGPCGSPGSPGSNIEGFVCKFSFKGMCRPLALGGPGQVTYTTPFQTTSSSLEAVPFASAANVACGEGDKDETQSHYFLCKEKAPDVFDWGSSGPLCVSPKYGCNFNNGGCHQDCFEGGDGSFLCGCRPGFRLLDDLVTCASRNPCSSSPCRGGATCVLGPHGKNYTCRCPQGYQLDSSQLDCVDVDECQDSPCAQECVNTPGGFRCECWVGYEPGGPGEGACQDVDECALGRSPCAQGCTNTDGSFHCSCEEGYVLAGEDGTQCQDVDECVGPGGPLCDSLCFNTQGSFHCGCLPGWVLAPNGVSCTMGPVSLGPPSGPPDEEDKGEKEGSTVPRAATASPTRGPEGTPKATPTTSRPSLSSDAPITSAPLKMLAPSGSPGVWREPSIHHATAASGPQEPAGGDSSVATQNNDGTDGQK

Target: Human CD93 recombinant protein (Sino Biological Inc, Catalog #12589-H08H) (human) (UniProt Q9NPY3)
Test: ELISA, His-tagged human CD93 coated at 1 µg/mL, anti-mouse Fc HRP

B1: mouse MMRN2-mFc (Fc fusion, UniProt A6H6E2 23-943, looked up, not shown: a dimerising Fc or GST)
chain: QDPGTKFSHLNRPGMPEGWRLGAEDTSRDPIRRNWCPYQKSRLVTFVAACKTEKFLVHSQQPCPQGAPDCQGVRVMYRVAQKPVYQVQQKVLISVDWRCCPGFQGPDCQDHNPTANPEPTEPSGKLQETWDSMDGFELGHPVPEFNEIKVPQEQQENLLQNLQNDAQSVEDGFPGSWEAPPSNLTDEMTEANLTEFEFPGRTSEHLLQPHIDAFLKAHFSPIWKNFNDSLHSLSQAIRNLSLDVEANHQAIKMIQEGTVARADFQELGAKFEAKVQQNSQRLGQLWQDVEDQLHAQRRSVHHALSDVQAEVSTKLKQLVKAQELPGANGSLVMASAAAAARPEPESLQARLGQLQRNLSALHMVTSQREEELQSTLKNMDSVLKQHAEEIKELYSESDETFDQISKVERQVEELLVNHTGLRELRVILMEKSLIMEENKEEIERQLLELNLTLQHLHAGHADLIKYVKDCNCQRVNSDVDVAPEGHRDVMHTLEETQVSLDEQHQLDGSSLQALQSTVDAMSSAMDAYRGEGERARAERARIRSQLRALDHAVEALKTAANGTRKEIRLLHGSFTALLEDALRHQAVLAALFGEEMIDEMSEEAPRPLPLDYEQIRLALQDAASGLQEQAIGWEDLATRVEALEKAAGGFVEQHPQLAEGLEPSHDSGREEEAMTLAELEQEIRRLSSDVKQIGQCCEASWAASLNSSLEDLHSMLLDTQHGLRQHRQLFHNLFQNFQGLVASNISLDLGKLQAMLSKKDKKQPRGPGESRKRDKKQVVMSTDAHAKGLELWETGSPVAFYAGSSEGATALQMVKFNTTSINVGSSYFPEHGYFRAPKRGVYLFAVSITFGPGPGMGQLVFEGHHRVPVYSTEQRGGSTATTFAMVELQKGERAWFELIQGSATKGSQPGTAFGGFLMFKT
How did the binding turn out when B1 was run?
Its binding is “binds”.
